The list shows a part of the results. The calls rarely recur for the same compound in another form.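 Kinases, fused to nanoluciferase, were expressed in K562 cells; luminescence was measured every 4 h from 2 to 18 h as percent of control (DMSO = 100%, positive control = 0%). A time point is decreased if signal falls significantly (2 sigma). Hits were called by the authors by a rule that is not shown; the count of time points alone does not decide it.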
Molecular target: EGFR_L718V (UniProt P00533)
Assay: kinase-Nluc reporter destabilization hit call (1 = scored as downregulated) (binary); higher = compound decreases kinase abundance
Conditions: 10 µM; K562; 2-18 h

kinase-Nluc reporter destabilization hit call, inactive:
CC(C)N(CCC(=O)c1ccc2ccccc2c1)Cc1ccccc1 0
C=CC(=O)N1C[C@@H](Nc2ncnc3[nH]ccc23)CC[C@H]1C [(2R,5S)-Ritlecitinib] 0
COc1ccc(-c2cc(C(=O)NN=C(C)c3ccc(OC)c(OC)c3)[nH]n2)cc1 0
Cc1ccc2c(=O)c3cccc(CC(=O)O)c3oc2c1C [Vadimezan] 0
C[C@@H]1CN(C(=O)Nc2ccc(-c3nc(N4CCOCC4)c4cnn(CCCCCCC(=O)NO)c4n3)cc2)CCO1 [HDACs/mTOR Inhibitor 1] 0
C[C@H]1CN(C2COC2)CCN1c1ccc(Nc2cc(-c3ccnc(N4CCn5c(cc6c5CC(C)(C)C6)C4=O)c3CO)cn(C)c2=O)nc1 [Fenebrutinib] 0
Nc1ncccc1-c1nc2ccc(-c3ccccc3)nc2n1-c1ccc(C2(N)CCC2)cc1 [Miransertib] 0
O=c1ncn2nc(Sc3ccc(F)cc3F)ccc2c1-c1c(Cl)cccc1Cl [Neflamapimod] 0
CCCCCC1CC1CC1CC1CCCCCCCC(=O)OC (stereo unspecified) 0
NC1(C(=O)N[C@@H](CCO)c2ccc(Cl)cc2)CCN(c2nc[nH]c3nccc2-3)CC1 [Capivasertib] 0
Cc1ccc(O)cc1Nc1ccnc(Nc2cccc(C(N)=O)c2)n1 [Lck inhibitor 2] 0

3 entries already listed, arranged by count of non-hydrogen atoms, falling:
kinase-Nluc reporter destabilization hit call, inactive:
C[C@H]1CN(C2COC2)CCN1c1ccc(Nc2cc(-c3ccnc(N4CCn5c(cc6c5CC(C)(C)C6)C4=O)c3CO)cn(C)c2=O)nc1 [Fenebrutinib] 0
COc1ccc(-c2cc(C(=O)NN=C(C)c3ccc(OC)c(OC)c3)[nH]n2)cc1 0
CCCCCC1CC1CC1CC1CCCCCCCC(=O)OC (stereo unspecified) 0
